PubChem BioAssay AID1259308 | NCATS, 2017

Assay: 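Knock-downs that increase output of a recombinant reporter protein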 (primary screen)
Cell system: human HEK293 embryonic kidney cells stably expressing firefly luciferase (HEK-CMV-Luc2-Hygro)
Reagents: single siRNA against human genes, 0.8 pmol siRNA per well
Duration: 72 h
Measured: 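Luciferase light (ONE-Glo) measured on one replicate plate set and viability (CellTiter-Glo) on the other, scaled to a negative control siRNA, with robust z-scores and luciferase per cell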
Reading the numbers: total luciferase, z-score and total luciferase, % of control: higher = more reporter protein produced; luciferase per cell, z-score: higher = more reporter output per viable cell
Call rule: 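An siRNA counts as active if its total luciferase robust z-score exceeds 3; genes with two or more such siRNAs out of three were retested with fresh siRNAs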
Calls: active = raised luciferase; inactive = no rise
The deposit covers about 59,000 reagents; this is an unselected part. In the full data, about 1,510 (2.6%) were called active. 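Calls use total luciferase alone and ignore viability, so some active siRNAs may act by altering cell number.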 A number with no mark means an inactive call. The numbers tell different reagents against one gene apart. Further read-outs or replicates are left out here.

The first 3 records, ahead of the listing:
gene symbol	siRNA no.	total luciferase, z-score	total luciferase, % of control	luciferase per cell, z-score
MED27 (mediator complex subunit 27)	1	-1.92	43.8	-1.56
MED27 (mediator complex subunit 27)	2	-1.24	57.3	-0.634
MED27 (mediator complex subunit 27)	3	-1.55	51.1	-0.448

The list itself, repeating the preview:
gene symbol	siRNA no.	total luciferase, z-score	total luciferase, % of control	luciferase per cell, z-score
MED27 (mediator complex subunit 27)	1	-1.92	43.8	-1.56
MED27 (mediator complex subunit 27)	2	-1.24	57.3	-0.634
MED27 (mediator complex subunit 27)	3	-1.55	51.1	-0.448
PEX16 (peroxisomal biogenesis factor 16)	1	0.105	84	0.179
PEX16 (peroxisomal biogenesis factor 16)	2	-0.216	77.6	-0.519
PEX16 (peroxisomal biogenesis factor 16)	3	-0.283	76.3	-0.0216
EIF4G2 (eukaryotic translation initiation factor 4 gamma 2)	1	0.0291	82.5	0.0317
EIF4G2 (eukaryotic translation initiation factor 4 gamma 2)	2	0.186	85.6	-0.262
EIF4G2 (eukaryotic translation initiation factor 4 gamma 2)	3	1.81	118	2.05
FBXL18 (F-box and leucine rich repeat protein 18)	1	-1.41	53.8	-1.31
FBXL18 (F-box and leucine rich repeat protein 18)	2	-2.63	29.6	-2.35
FBXL18 (F-box and leucine rich repeat protein 18)	3	0.498	91.8	0.583
ECE2 (endothelin converting enzyme 2)	1	-0.517	71.6	-0.724
ECE2 (endothelin converting enzyme 2)	2	-2.21	38	-1.87
ECE2 (endothelin converting enzyme 2)	3	-0.794	66.1	-1.75
ECE2 (endothelin converting enzyme 2)	4	2.32	128	1.87
ECE2 (endothelin converting enzyme 2)	5	-0.297	76	-0.263
ECE2 (endothelin converting enzyme 2)	6	-2.71	28	-3.72
ZSCAN5B (zinc finger and SCAN domain containing 5B)	1	0.177	85.4	0.886
ZSCAN5B (zinc finger and SCAN domain containing 5B)	2	-0.781	66.4	1.33
ZSCAN5B (zinc finger and SCAN domain containing 5B)	3	2.03	122	1.83
LRRC37B (leucine rich repeat containing 37B)	1	-1.08	60.4	-0.899
LRRC37B (leucine rich repeat containing 37B)	2	0.306	88	0.158
LRRC37B (leucine rich repeat containing 37B)	3	-0.264	76.6	0.248
